Test results reported in patent US4036840A, “2-Substituted-s-triazolo[1,5a]pyrimidines” (ICN Pharmaceuticals, priority 1975, dated 1977).
Some results were stated once for a whole list of compounds, not compound by compound.

The molecules below were run on anesthetized dogs (assay: Hemodynamic activity in anesthetized dogs). Conditions: 10 mg/Kg/hr.
Format: in vivo, dog
Procedure: Compounds 3, 41, 43-48, 51 were tested in anesthetized dogs for hemodynamic activities including cardiac output, stroke volume and heart rate. For management of low perfusion states such as cardiovascular shock and congestive heart failure, it is desirable to have increased cardiac output and increased stroke volume accompanied by a decrease or no change in heart rate.
% CHANGE OF CARDIAC OUTPUT, STROKE VOLUME AND HEART RATE AT 10 mg/Kg/hr

Structure (SMILES) | cardiac output and stroke volume | heart rate
CCCc1cc(CCC)n2nc(SCc3cccnc3)nc2n1 [Compound 46, 5,7-di-n-propyl-2-(3-picolyl)thio-1,2,4-triazolo[1,5a]pyrimidine] | significant increases in cardiac output and stroke volume | a decrease or nominal change in heart rate
CCCc1cc(CCC)n2nc(S(=O)(=O)Cc3ccc(C)cc3)nc2n1 [Compound 48, 5,7-di-n-propyl-2-(4-methylbenzyl)sulfonyl-1,2,4-triazolo[1,5a]pyrimidine] | significant increases in cardiac output and stroke volume | a decrease or nominal change in heart rate
CCCc1cc(CCC)n2nc(SCc3ccccc3)nc2n1 [Compound 41, 2-benzylthio-5,7-di-n-propyl-1,2,4-triazolo[1,5a]pyrimidine] | significant increases in cardiac output and stroke volume | a decrease or nominal change in heart rate
CCCc1cc(CCC)n2nc(SCc3ccc(C)cc3)nc2n1 [Compound 43, 5,7-di-n-propyl-2-(4-methylbenzyl)thio-1,2,4-triazolo[1,5a]pyrimidine] | significant increases in cardiac output and stroke volume | a decrease or nominal change in heart rate
CCCc1cc(CCC)n2nc(SCc3ccc(C(=O)O)cc3)nc2n1 [Compound 44, 5,7-di-n-propyl-2-(4-carboxybenzyl)thio-1,2,4-triazolo[1,5a]pyrimidine] | significant increases in cardiac output and stroke volume | a decrease or nominal change in heart rate
CCCc1cc(CCC)n2nc(S(=O)(=O)Cc3ccccc3)nc2n1 [Compound 47, 2-benzylsulfonyl-5,7-di-n-propyl-1,2,4-triazolo[1,5a]pyrimidine] | significant increases in cardiac output and stroke volume | a decrease or nominal change in heart rate
CCCc1cc(CCC)n2nc(SCc3ccncc3)nc2n1 [Compound 45, 5,7-di-n-propyl-2-(4-picolyl)thio-1,2,4-triazolo[1,5a]pyrimidine] | significant increases in cardiac output and stroke volume | a decrease or nominal change in heart rate
